This data set has as its system HF diet-induced obese mice. The data set is described as follows: Oral glucose tolerance test and insulin tolerance in HF diet-induced obese mice. Format: in vivo. Conditions: oral 50 mg/kg, 10 days. Here is the method: The original Adipor1^+/−/Adipor2^+/− mice (C57BL/6 and 129/Sv mixed background)^a were backcrossed with C57B1/6 mice more than seven times. All experiments in this study were conducted on male littermates.
Mice were 6-10 week of age at the time of the experiment. They were housed in cages and maintained on a 12 hr light-dark cycle.
Plasma glucose levels were determined by using a glucose B-test (Wako Pure Chemical Industries). Plasma insulin was measured with an insulin immunoassay (Shibayagi). Plasma NEFAs (Wako Pure Chemical Industries) were assayed by enzymatic methods.
The oral glucose tolerance test (OGTT) and insulin tolerance test (ITT) were conducted as previously described^a,b with slight modifications. The areas of the glucose and insulin curves were calculated by multiplying the cumulative mean height of the glucose values (1 mg/ml=1 cm) and insulin values (1 ng/ml=1 cm), respectively, by time (60 min=1 cm)^c,a. The insulin resistance index was calculated from the product of the areas of glucose and insulin×10^−2 in the glucose tolerance test. The results are expressed as the percentage of the value respect to control littermates.

`O=C(COc1ccc(C(=O)c2ccccc2)cc1)NC1CCN(Cc2ccccc2)CC1` [Compound 73, 2-(4-benzoyl-phenoxy)-N-(1-benzylpiperidin-4-yl)acetamide]: the body weight entry was “did not significantly affect body weight” and the food intake entry is listed as “did not significantly affect”.

The values are drawn from patent US20170298051A1, “ACTIVATOR OF ADIPONECTIN RECEPTOR” (THE UNIVERSITY OF TOKYO, priority 2013, published 2017).
